From PubChem BioAssay AID248 (DTP/NCI, 2004)
The list does not hold the whole screen: it is rich in T/C values a quarter to a half above the control, in often repeated tests (any T/C) and in doses without a T/C. Other doses and runs of a compound stand elsewhere. T/C is the treated group as % of the vehicle group. Where survival is the endpoint, this PubChem deposit counts one and a half times the control or more as active, and values a quarter to a half above the control carry no call in these data; other NCI protocols may use other cut-offs. Schedule codes are those of the source, read here as Q, the interval in days (D) or hours (H), X, the number of doses. Some entries were tested several times; their values stand side by side, smallest first. Some schedule codes hold Z or #, which are not explained here. Some T/C values carry the count of animals alive at the toxicity check (mostly the fifth day); without a count, all were alive then.

Test system: L1210 leukemia ip in BDF1 mice, survival T/C
Assay: NCI In Vivo Anticancer Drug Screen. Data for tumor model L1210 Leukemia (intraperitoneal) in B6D2F1 (BDF1) mice
Details: T/C endpoint: mean survival time, higher T/C = longer survival

O=c1[nH]c(=O)n(C2CC(O)C(CO)O2)cc1C(F)(F)F (configuration not stated)
T/C (dose: 1.33 mg/kg/injection, schedule: Q#B X045 (ip), vehicle: saline): 127 % of control | T/C (dose: 2.0 mg/kg/injection, schedule: Q#B X Z (ip), vehicle: saline): 142 % of control | T/C (dose: 4.5 mg/kg/injection, schedule: Q01DX Z (ip), vehicle: saline): 135 % of control | T/C (dose: 6.25 mg/kg/injection, schedule: Q01DX Z (im), vehicle: saline): 126 % of control | T/C (dose: 8.0 mg/kg/injection, schedule: Q01DX009 (ip), vehicle: saline): 125 % of control | T/C (dose: 8.0 mg/kg/injection, schedule: Q03HX024 (ip), vehicle: water): 136 % of control | T/C (dose: 12.0 mg/kg/injection, schedule: Q01DX Z (sc), vehicle: saline): 127 % of control | T/C (dose: 12.5 mg/kg/injection, schedule: Q01DX015 (ip), vehicle: saline): 133 % of control | T/C (dose: 12.5 mg/kg/injection, schedule: Q01DX Z (im), vehicle: saline): 136 % of control | T/C (dose: 16.0 mg/kg/injection, schedule: Q01DX009 (ip), vehicle: saline): 137 % of control | T/C (dose: 16.0 mg/kg/injection, schedule: Q01DX009 (ip), vehicle: water): 127 % of control | T/C (dose: 16.0 mg/kg/injection, schedule: Q03HX024 (ip), vehicle: water): 138 % of control | T/C (dose: 25.0 mg/kg/injection, schedule: Q01DX006 (iv), vehicle: saline): 127 % of control | T/C (dose: 25.0 mg/kg/injection, schedule: Q01DX Z (im), vehicle: saline): 130 % of control | T/C (dose: 32.0 mg/kg/injection, schedule: Q01DX009 (ip), vehicle: saline): 147 % of control | T/C (dose: 32.0 mg/kg/injection, schedule: Q01DX009 (ip), vehicle: water): 147 % of control | T/C (dose: 32.0 mg/kg/injection, schedule: Q01DX009 (oral), vehicle: saline): 129 % of control | T/C (dose: 37.5 mg/kg/injection, schedule: Q01DX017 (ip), vehicle: water): 130 % of control | T/C (dose: 37.5 mg/kg/injection, schedule: Q01DX Z (ip), vehicle: water): 142 % of control | T/C (dose: 37.5 mg/kg/injection, schedule: Q#A X034 (ip), vehicle: water): 136 % of control | T/C (dose: 38.5 mg/kg/injection, schedule: Q01DX Z (ip), vehicle: water): 140 % of control | T/C (dose: 39.0 mg/kg/injection, schedule: Q01DX Z (ip), vehicle: water): 137 % of control | T/C (dose: 40.0 mg/kg/injection, schedule: Q01DX Z (ip), vehicle: saline): 148 % of control | T/C (dose: 50.0 mg/kg/injection, schedule: Q01DX006 (iv), vehicle: saline): 127 % of control | T/C (dose: 50.0 mg/kg/injection, schedule: Q01DX015 (oral), vehicle: saline): 139 % of control | T/C (dose: 50.0 mg/kg/injection, schedule: Q01DX Z (ip), vehicle: saline): 142 % of control | T/C (dose: 64.0 mg/kg/injection, schedule: Q01DX009 (oral), vehicle: saline): 129 % of control | T/C (dose: 64.0 mg/kg/injection, schedule: Q03HX016 (ip), vehicle: water): 125 % of control | T/C (dose: 64.0 mg/kg/injection, schedule: Q## X024 (ip), vehicle: saline): 146 % of control | T/C (dose: 64.5 mg/kg/injection, schedule: Q01DX Z (ip), vehicle: water): 130 % of control | T/C (dose: 75.0 mg/kg/injection, schedule: Q01DX017 (ip), vehicle: water): 141 % of control | T/C (dose: 75.0 mg/kg/injection, schedule: Q02DX009 (ip), vehicle: water): 126 % of control | T/C (dose: 75.0 mg/kg/injection, schedule: Q#A X034 (ip), vehicle: water): 144 % of control | T/C (dose: 80.0 mg/kg/injection, schedule: Q01DX009 (oral), vehicle: saline): 136 % of control | T/C (dose: 100.0 mg/kg/injection, schedule: Q01DX005 (ip), vehicle: saline): 126 and 129 % of control | T/C (dose: 100.0 mg/kg/injection, schedule: Q01DX006 (iv), vehicle: saline): 134 % of control | T/C (dose: 100.0 mg/kg/injection, schedule: Q01DX015 (oral), vehicle: saline): 146 % of control | T/C (dose: 107.5 mg/kg/injection, schedule: Q01DX Z (ip), vehicle: water): 131 % of control | T/C (dose: 108.0 mg/kg/injection, schedule: Q01DX Z (ip), vehicle: water): 147 % of control | T/C (dose: 128.0 mg/kg/injection, schedule: Q03HX016 (ip), vehicle: water): 132 % of control | T/C (dose: 150.0 mg/kg/injection, schedule: Q01DX005 (ip), vehicle: water): 126 % of control | T/C (dose: 150.0 mg/kg/injection, schedule: Q01DX017 (ip), vehicle: water): 149 % of control | T/C (dose: 150.0 mg/kg/injection, schedule: Q01DX Z (oral), vehicle: saline): 125 % of control | T/C (dose: 150.0 mg/kg/injection, schedule: Q02DX009 (ip), vehicle: water): 132 % of control | T/C (dose: 151.0 mg/kg/injection, schedule: Q01DX Z (ip), vehicle: saline): 148 % of control | T/C (dose: 160.0 mg/kg/injection, schedule: Q01DX009 (oral), vehicle: saline): 137 % of control | T/C (dose: 178.5 mg/kg/injection, schedule: Q01DX Z (ip), vehicle: water): 126 % of control | T/C (dose: 179.5 mg/kg/injection, schedule: Q01DX Z (ip), vehicle: water): 133 % of control | T/C (dose: 200.0 mg/kg/injection, schedule: Q01DX005 (ip), vehicle: saline): 126 and 132 % of control | T/C (dose: 200.0 mg/kg/injection, schedule: Q01DX006 (iv), vehicle: saline): 144 % of control | T/C (dose: 200.0 mg/kg/injection, schedule: Q01DX015 (ip), vehicle: saline): 141 % of control | T/C (dose: 200.0 mg/kg/injection, schedule: Q01DX Z (oral), vehicle: saline): 131 % of control | T/C (dose: 250.0 mg/kg/injection, schedule: Q01DX Z (ip), vehicle: saline): 139 % of control | T/C (dose: 256.0 mg/kg/injection, schedule: Q01DX009 (ip), vehicle: water): 126 % of control | T/C (dose: 256.0 mg/kg/injection, schedule: Q## X003 (oral), vehicle: saline): 126 % of control | T/C (dose: 256.0 mg/kg/injection, schedule: Q## X024 (oral), vehicle: saline): 130 % of control | T/C (dose: 298.5 mg/kg/injection, schedule: Q01DX Z (ip), vehicle: water): 131 % of control [9 of 10 alive] | T/C (dose: 299.5 mg/kg/injection, schedule: Q01DX Z (ip), vehicle: water): 129 % of control | T/C (dose: 300.0 mg/kg/injection, schedule: Q01DX005 (ip), vehicle: water): 141 % of control | T/C (dose: 300.0 mg/kg/injection, schedule: Q02DX009 (ip), vehicle: water): 134 % of control | T/C (dose: 320.0 mg/kg/injection, schedule: Q01DX009 (oral), vehicle: saline): 132 % of control | T/C (dose: 350.0 mg/kg/injection, schedule: Q01DX Z (ip), vehicle: saline): 139 % of control | T/C (dose: 400.0 mg/kg/injection, schedule: Q01DX006 (iv), vehicle: saline): 148 % of control | T/C (dose: 400.0 mg/kg/injection, schedule: Q01DX015 (ip), vehicle: saline): 130 % of control | T/C (dose: 400.0 mg/kg/injection, schedule: Q01DX Z (ip), vehicle: saline): 140 % of control | T/C (dose: 400.0 mg/kg/injection, schedule: Q01DX Z (oral), vehicle: saline): 133 % of control | T/C (dose: 400.0 mg/kg/injection, schedule: Q01DX Z (sc), vehicle: saline): 140 % of control | T/C (dose: 512.0 mg/kg/injection, schedule: Q01DX009 (oral), vehicle: saline): 126 % of control | T/C (dose: 512.0 mg/kg/injection, schedule: Q## X003 (oral), vehicle: saline): 130 % of control | T/C (dose: 512.0 mg/kg/injection, schedule: Q## X008 (ip), vehicle: saline): 145 % of control | T/C (dose: 600.0 mg/kg/injection, schedule: Q01DX005 (ip), vehicle: water): 136 % of control | T/C (dose: 600.0 mg/kg/injection, schedule: Q03DX Z (ip), vehicle: saline): 138 % of control | T/C (dose: 800.0 mg/kg/injection, schedule: Q01DX Z (im), vehicle: saline): 144 % of control | T/C (dose: 800.0 mg/kg/injection, schedule: Q01DX Z (sc), vehicle: saline): 140 % of control | T/C (dose: 1024.0 mg/kg/injection, schedule: Q04DX003 (ip), vehicle: water): 132 % of control | T/C (dose: 1024.0 mg/kg/injection, schedule: Q## X008 (ip), vehicle: saline): 145 % of control | T/C (dose: 1024.0 mg/kg/injection, schedule: Q## X008 (oral), vehicle: saline): 132 % of control | T/C (dose: 1024.0 mg/kg/injection, schedule: Q## X024 (ip), vehicle: saline): 146 % of control | T/C (dose: 2000.0 mg/kg/injection, schedule: Q01DX001 (ip), vehicle: saline): 132 % of control | T/C (dose: 2048.0 mg/kg/injection, schedule: Q04DX003 (ip), vehicle: water): 132 % of control | T/C (dose: 2048.0 mg/kg/injection, schedule: Q## X008 (oral), vehicle: saline): 139 % of control | T/C (dose: 2048.0 mg/kg/injection, schedule: Q## X024 (oral), vehicle: saline): 142 % of control
